These are yes or no findings as the source states them, for the method shown. Some results given as binding are weak or reduced against the parent protein; the word gives no strength.
How the values were obtained:
[1] = target: cynomolgus CTLA4 expressed on the cell surface of CHO cells (cynomolgus) (UniProt G7PL88); experiment: FACS on CHO-cynoCTLA4 cells
[2] = target: cynomolgus CTLA4 expressed on the cell surface of CHO cells (cynomolgus) (UniProt G7PL88); experiment: FACS on CHO-cynoCTLA4 cells, pH 7.4
[3] = target: cynomolgus CTLA4 expressed on the cell surface of CHO cells (cynomolgus) (UniProt G7PL88); experiment: FACS saturation on CHO cells expressing cynomolgus CTLA4, pH 7.4

Sequences of proteins named here, by UniProt entry; tags and fusion partners are left off. A change or cut given only in a name is not applied to a line headed by its entry. A line that says so, or that is headed by a name, gives the form on record, which may keep a tag or linker.
cynomolgus CTLA4 expressed on the cell surface of CHO cells (G7PL88, form named): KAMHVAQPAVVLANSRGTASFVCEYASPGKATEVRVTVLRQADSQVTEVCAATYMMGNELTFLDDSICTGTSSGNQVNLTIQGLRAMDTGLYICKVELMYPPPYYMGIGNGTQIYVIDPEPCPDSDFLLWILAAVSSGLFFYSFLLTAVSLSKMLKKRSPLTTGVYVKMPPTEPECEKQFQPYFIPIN

Measured: binding

B1: BA-087-05-19 (antibody, V domains shown)
VH: EVQLVESGGGLVQPGGSLRLSCAASGFTFSHYTMHWVRQAPGKGLEWVSFISYDGNNKYYADSVKGRFTISRDNSKNTLYLQMNSLRAEDTAVYYCARTGWLGPFDYWGQGTLVTVSS
VL: AIQLTQSPSSLSASVGDRVTITCRASQYVGSSYLAWYLQKPGQSPQLLIYGAFSRATGIPARFSGSGSGTEFTLTISSLQSEDFAVYYCQQDGSSPWTFGQGTKVEIK
binds: all assays above

B2: BA-087-08-32 (antibody, V domains shown)
VH: EVQLVQSGAEVKKPGATVKISCKVSGFTFSHYTMHWIRQSPSRGLEWLGFISYDGNYKYYADSVKGRFTISRDNAKNSLYLQMNSLRAEDTAVYYCARTGWLGPFDYWGQGTLVTVSS
VL: EIVMTQSPATLSVSPGERATLSCRASQSVGSSYLAWYQQKPGKAPKLLIYGAFSRATGVPSRFSGSGSGTDFTLTISSLQPEDFATYYCQQDGSSPWTFGQGTKVEIK
binds: all assays above
